Results from PubChem BioAssay AID540256 (National Center for Advancing Translational Sciences (NCATS), 2011).
About 3,700 (1.2%) of roughly 300,000 compounds were called active. The inconclusive results got no clear call from the source; some entries with a clear call stand among them for comparison. The call rests on the fitted dose curve; tested in HEK293 cells. Potencies beside an inconclusive call are fits to weak or partial responses and may not hold up.

Assay: qHTS for Inhibitors of binding or entry into cells for Lassa Virus; further: nearly all actives have a fitted effect of over 50% in size
Settings: Lassa virus pseudotype entry inhibition, cell reporter; activity change, negative = inhibition: at 37.9 µM (top of the series) unless noted
On the % scale 0 is the no-effect control and ±100 the full control effect; potency means the concentration at half of the fitted maximal effect.

| SMILES | Potency | activity change, negative = inhibition |
| --- | --- | --- |
| Cc1ccc(C[n+]2cccc(-c3ccccc3)c2)c(C)c1 | inconclusive: 1.46 µM [inhibitor, full curve, poor fit] | – |
| CN(CC(=O)Nc1ccc(Cl)c(C(F)(F)F)c1)C(=O)CCNC(=O)c1ccco1 | – | inactive: -2.38% |
| COc1cc2c(cc1OC)CN(C(=S)Nc1cccc(Cl)c1C)CC2 | inconclusive: 14.1 µM [inhibitor, partial curve, poor fit] | – |
| CN(C)S(=O)(=O)c1ccc(Cl)c(NC(=O)COC(=O)CN2C(=O)NC(C)(C)C2=O)c1 | inconclusive: 3.55 µM [inhibitor, single point] | – |
| Cc1ccc(-n2nnc3c(SCC(=O)NCC4CCCO4)ncnc32)cc1 (stereo not drawn) | inconclusive: 4.47 µM [inhibitor, partial curve, poor fit] | – |
| Nc1nc(SCC(=O)Nc2ccccc2Sc2ccccc2)n[nH]1 | – | inactive: -18.5% |
| CC(C)Cn1nc(C(=O)Nc2cccc(S(=O)(=O)N3CCCC3)c2)c2ccccc2c1=O | inconclusive: 20 µM [inhibitor, partial curve] | – |
| O=c1c2ccccc2nc(SCc2cn3ccsc3n2)n1-c1ccccc1F | inconclusive: 22.4 µM [inhibitor, single point] | – |
| CCOC(=O)CC(NC(=O)c1ccco1)c1ccccc1Cl (stereo not drawn) | inconclusive: 2.24 µM [activator, full curve, poor fit] | – |
| Cc1ccc(C)c(S(=O)(=O)NCC(=O)Nc2sc3c(c2C(N)=O)CCC(C)C3)c1 (stereo not drawn) | inconclusive: 35.5 µM [inhibitor, single point] | – |
| C=CCN(Cc1cccs1)C(=O)COc1ccc2c(c1)OCO2 | inconclusive: 10 µM [activator, partial curve] | – |
| CCCCN(Cc1cc2cc(C)ccc2[nH]c1=O)C(=O)c1cccc(Cl)c1 | – | inactive: -11.5% [at 46.1 µM] |
| Cc1ccc(N2C(=O)CC(c3c[nH]c4ccccc34)C2=O)cc1 (stereo not drawn) | – | inactive: 14% [at 46.1 µM] |
| O=C(NCc1cccc(C(F)(F)F)c1)c1cccc(S(=O)(=O)NCc2ccccc2)c1 | inconclusive: 16.4 µM [inhibitor, single point] | – |
| Cc1ccc2c(=O)cc(C(=O)Nc3c(C)cccc3C)oc2c1 | – | inactive: -4.47% [at 46.1 µM] |
| Cc1ccccc1S(=O)(=O)Cc1ccc(C(=O)N2CCN(c3cccc(C)c3C)CC2)o1 | active: 3.55 µM | – |
| COc1ccc(S(=O)(=O)c2c(Nc3cccc(Cl)c3)sc(C(=O)c3ccccc3)c2N)cc1 | inconclusive: 5.62 µM [inhibitor, full curve, poor fit] | – |
| Cc1ccc(NS(=O)(=O)c2cc(C(=O)NCCSC3CCCCC3)ccc2C)cc1 | inconclusive: 14.6 µM [inhibitor, partial curve, poor fit] | – |
| CCC(Oc1ccccc1)C(=O)N(Cc1ccccc1)c1ccccn1 (stereo not drawn) | inconclusive: 10 µM [inhibitor, partial curve] | – |
| Cc1occc1C(=O)NC(C)C12CC3CC(CC(C3)C1)C2 (stereo not drawn) | – | inactive: 0.49% [at 46.1 µM] |
| CC(=O)c1sc2nc(=O)c(C)nn2c1C | – | inactive: -8.19% |
| COC(=O)C(O)(c1ccc(N(C)C(=O)COc2ccccc2)cc1)C(F)(F)F (stereo not drawn) | inconclusive: 14.1 µM [inhibitor, single point] | – |

Exported as comma-separated lines: part of the list above.
SMILES,Potency,"activity change, negative = inhibition"
CN(CC(=O)Nc1ccc(Cl)c(C(F)(F)F)c1)C(=O)CCNC(=O)c1ccco1,–,inactive: -2.38%
COc1cc2c(cc1OC)CN(C(=S)Nc1cccc(Cl)c1C)CC2,"inconclusive: 14.1 µM [inhibitor, partial curve, poor fit]",–
CN(C)S(=O)(=O)c1ccc(Cl)c(NC(=O)COC(=O)CN2C(=O)NC(C)(C)C2=O)c1,"inconclusive: 3.55 µM [inhibitor, single point]",–
Cc1ccc(-n2nnc3c(SCC(=O)NCC4CCCO4)ncnc32)cc1 (stereo not drawn),"inconclusive: 4.47 µM [inhibitor, partial curve, poor fit]",–
Nc1nc(SCC(=O)Nc2ccccc2Sc2ccccc2)n[nH]1,–,inactive: -18.5%
CC(C)Cn1nc(C(=O)Nc2cccc(S(=O)(=O)N3CCCC3)c2)c2ccccc2c1=O,"inconclusive: 20 µM [inhibitor, partial curve]",–
O=c1c2ccccc2nc(SCc2cn3ccsc3n2)n1-c1ccccc1F,"inconclusive: 22.4 µM [inhibitor, single point]",–
CCOC(=O)CC(NC(=O)c1ccco1)c1ccccc1Cl (stereo not drawn),"inconclusive: 2.24 µM [activator, full curve, poor fit]",–
Cc1ccc(C)c(S(=O)(=O)NCC(=O)Nc2sc3c(c2C(N)=O)CCC(C)C3)c1 (stereo not drawn),"inconclusive: 35.5 µM [inhibitor, single point]",–

Remaining list, next part:

| SMILES | Potency | activity change, negative = inhibition |
| --- | --- | --- |
| C=C(C)COc1ccc2c(c1)CCC1C2CCC2(C)C(=O)C(=NO)CC12 (stereo not drawn) | inconclusive: 35.5 µM [inhibitor, single point] | – |
| Cc1ccc(NC(=O)Cn2c3ccc(F)cc3c3nc4n(c(=O)c32)CCS4)cc1F | inconclusive: 10 µM [inhibitor, partial curve] | – |
| Cc1noc(C)c1COc1ccc(C(=O)OCC(=O)NC(=O)C2COc3ccccc3O2)cc1 (stereo not drawn) | inconclusive: 1.12 µM [activator, partial curve, poor fit] | – |
| CCSc1nc(-c2ccc(OC)cc2)nc2c1Cc1c(CO)cnc(C)c1O2 | – | inactive: -6.13% [at 46.1 µM] |
| CC(=O)N1CCCc2ccc(NC(=O)c3ccc(OC(C)C)cc3)cc21 | inconclusive: 1.41 µM [inhibitor, partial curve, poor fit] | – |
| COc1cc(C(=O)COC(=O)c2ccncc2)cc(OC)c1OC | – | inactive: 2.22% [at 46.1 µM] |
| CCOC(=O)c1c(C)n(-c2ccc(C)cc2)c2ccc(OCC(O)CNCCCO)cc12 (stereo not drawn) | inconclusive: 35.5 µM [inhibitor, single point] | – |
| c1ccc(-c2cn3nc(-c4ccccc4)cnc3n2)cc1 | inconclusive: 6.31 µM [inhibitor, partial curve, poor fit] | – |
| c1ccc(CCn2nnnc2C(c2cccnc2)N2CCN(c3nc4ccccc4s3)CC2)cc1 (stereo not drawn) | inconclusive: 16.4 µM [inhibitor, single point] | – |
| O=C(Cn1nc2c(cc1=O)CCCC2)NCc1ccc(Cl)cc1 | – | inactive: -2.96% [at 46.1 µM] |
| CN1CCc2c(OCC(=O)NC3CCCCC3)cccc2C1=O | inconclusive: 6.31 µM [activator, single point] | – |
| CSc1nn2c(C(F)(F)F)cc(C(F)(F)F)nc2c1C(=O)O | inconclusive: 3.16 µM [inhibitor, single point] | – |
| CCCNC(=O)c1ccc2c(c1)N=C(CCC)c1ccccc1S2 | – | inactive: -17% [at 46.1 µM] |
| Cc1ccnc(SCc2cc(=O)c(OC(=O)c3ccc(S(=O)(=O)N(C)C)cc3)co2)n1 | – | inactive: -18.1% |
| CC(C)Cc1ccc(/C=C/C(=O)N2CCOCC2)cc1 | inconclusive: 22.4 µM [inhibitor, single point] | – |
| Cc1ccc(S(=O)(=O)NCc2ccc(C(=O)N3CCN(c4ccccc4)CC3)cc2)cc1 | inconclusive: 12.6 µM [inhibitor, partial curve, poor fit] | – |
| c1ccc2[nH]c(-c3nc4ccccc4[nH]3)nc2c1 | inconclusive: 20.6 µM [inhibitor, single point] | – |
| Cc1ccc(N=c2oc3cc(O)ccc3cc2C(N)=O)cc1 | inconclusive: 35.5 µM [inhibitor, single point] | – |
| COc1ccccc1Oc1cc(C#N)c(C#N)cc1-n1nnc2ccccc21 | inconclusive: 4.61 µM [inhibitor, partial curve, poor fit] | – |
| COc1ccc(CN(C(=O)Cc2cccs2)C(C(=O)NC2CCCC2)c2ccncc2)cc1 (stereo not drawn) | – | inactive: -10.9% |
| COc1ccc(CC(=O)N/N=C/c2ccc(C)s2)cc1 | inconclusive: 14.1 µM [inhibitor, partial curve, poor fit] | – |
